# Measurements published in the supplement of paper PMC8728848.
# The other results are listed elsewhere or left out.
# What was measured:
# Assay in all cases: glycan array binding signal (z-score within array); higher = stronger binding
# Details in all cases: glycan notation: IUPAC condensed, linker removed
# [1] = molecular target: Gal(a1-3)[Gal(a1-4)]Gal(b1-4)GlcNAc
# Procedure, shortened: (§1)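 The binding signal is a Z-score computed within each array. Data were drawn from 3228 arrays in the Consortium for Functional Glycomics database, restricted to those with a known protein sequence. Scores were averaged over arrays of the same protein sequence at different concentrations or buffers, and over linkers, and negative values can be taken as non-binding.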
# [2] = molecular target: Gal(a1-4)Gal(b1-3)GlcNAc(b1-2)Man(a1-3)[Gal(a1-4)Gal(b1-3)GlcNAc(b1-2)Man(a1-6)]Man(b1-4)GlcNAc(b1-4)GlcNAc
# Procedure, shortened: as §1
# Gal(a1-4)Gal(b1-4)Glc = molecular target: Gal(a1-4)Gal(b1-4)Glc
# Procedure, shortened: as §1
# Gal(a1-4)Gal(b1-4)GlcNAc = molecular target: Gal(a1-4)Gal(b1-4)GlcNAc
# Procedure, shortened: as §1
# [3] = molecular target: Gal(a1-4)Gal(b1-4)GlcNAc(b1-2)Man(a1-3)[Gal(a1-4)Gal(b1-4)GlcNAc(b1-2)Man(a1-6)]Man(b1-4)GlcNAc(b1-4)GlcNAc
# Procedure, shortened: as §1
# [4] = molecular target: Gal(a1-4)Gal(b1-4)GlcNAc(b1-3)Gal(b1-4)Glc
# Procedure, shortened: as §1
# Gal(a1-4)GlcNAc = molecular target: Gal(a1-4)GlcNAc
# Procedure, shortened: as §1
# Gal(a1-6)Glc = molecular target: Gal(a1-6)Glc
# Procedure, shortened: as §1
# Gal(b1-2)Gal = molecular target: Gal(b1-2)Gal
# Procedure, shortened: as §1
# Gal(b1-3)Gal = molecular target: Gal(b1-3)Gal
# Procedure, shortened: as §1
# Gal(b1-3)Gal(b1-4)GlcNAc = molecular target: Gal(b1-3)Gal(b1-4)GlcNAc
# Procedure, shortened: as §1
# Gal(b1-3)GalNAc = molecular target: Gal(b1-3)GalNAc
# Procedure, shortened: as §1
# [5] = molecular target: Gal(b1-3)GalNAc(a1-3)[Fuc(a1-2)]Gal(b1-4)Glc
# Procedure, shortened: as §1
# [6] = molecular target: Gal(b1-3)GalNAc(a1-3)[Fuc(a1-2)]Gal(b1-4)GlcNAc
# Procedure, shortened: as §1
# Gal(b1-3)GalNAc(b1-3)Gal = molecular target: Gal(b1-3)GalNAc(b1-3)Gal
# Procedure, shortened: as §1
# [7] = molecular target: Gal(b1-3)GalNAc(b1-3)Gal(a1-4)Gal(b1-4)Glc
# Procedure, shortened: as §1
# [8] = molecular target: Gal(b1-3)GalNAc(b1-4)Gal(b1-4)Glc
# Procedure, shortened: as §1
# [9] = molecular target: Gal(b1-3)GalNAc(b1-4)[Neu5Ac(a2-3)]Gal(b1-4)Glc
# Procedure, shortened: as §1
# Gal(b1-3)GlcNAc = molecular target: Gal(b1-3)GlcNAc
# Procedure, shortened: as §1
# [10] = molecular target: Gal(b1-3)GlcNAc(a1-3)Gal(b1-4)GlcNAc
# Procedure, shortened: as §1
# [11] = molecular target: Gal(b1-3)GlcNAc(a1-6)Gal(b1-4)GlcNAc
# Procedure, shortened: as §1
# Gal(b1-3)GlcNAc(b1-2)Man = molecular target: Gal(b1-3)GlcNAc(b1-2)Man
# Procedure, shortened: as §1
# [12] = molecular target: Gal(b1-3)GlcNAc(b1-2)Man(a1-3)[Gal(b1-3)GlcNAc(b1-2)Man(a1-6)]Man(b1-4)GlcNAc(b1-4)GlcNAc
# Procedure, shortened: as §1
# [13] = molecular target: Gal(b1-3)GlcNAc(b1-2)Man(a1-3)[Gal(b1-3)GlcNAc(b1-2)Man(a1-6)]Man(b1-4)GlcNAc(b1-4)[Fuc(a1-6)]GlcNAc
# Procedure, shortened: as §1
# [14] = molecular target: Gal(b1-3)GlcNAc(b1-2)Man(a1-3)[GlcNAc(b1-4)][Gal(b1-3)GlcNAc(b1-2)Man(a1-6)]Man(b1-4)GlcNAc(b1-4)GlcNAc
# Procedure, shortened: as §1
# [15] = molecular target: Gal(b1-3)GlcNAc(b1-2)[Gal(b1-3)GlcNAc(b1-6)]Man(a1-6)[Gal(b1-3)GlcNAc(b1-2)Man(a1-3)]Man(b1-4)GlcNAc(b1-4)GlcNAc
# Procedure, shortened: as §1
# [16] = molecular target: Gal(b1-3)GlcNAc(b1-3)Gal(b1-3)GlcNAc
# Procedure, shortened: as §1
# [17] = molecular target: Gal(b1-3)GlcNAc(b1-3)Gal(b1-4)Glc
# Procedure, shortened: as §1
# [18] = molecular target: Gal(b1-3)GlcNAc(b1-3)Gal(b1-4)GlcNAc
# Procedure, shortened: as §1
# [19] = molecular target: Gal(b1-3)GlcNAc(b1-3)Gal(b1-4)GlcNAc(b1-2)Man(a1-3)[Gal(b1-3)GlcNAc(b1-3)Gal(b1-4)GlcNAc(b1-2)Man(a1-6)]Man(b1-4)GlcNAc(b1-4)GlcNAc
# Procedure, shortened: as §1
# [20] = molecular target: Gal(b1-3)GlcNAc(b1-3)Gal(b1-4)GlcNAc(b1-2)[Gal(b1-3)GlcNAc(b1-3)Gal(b1-4)GlcNAc(b1-6)]Man(a1-6)[Gal(b1-3)GlcNAc(b1-3)Gal(b1-4)GlcNAc(b1-2)Man(a1-3)]Man(b1-4)GlcNAc(b1-4)[Fuc(a1-6)]GlcNAc
# Procedure, shortened: as §1
# [21] = molecular target: Gal(b1-3)GlcNAc(b1-3)Gal(b1-4)GlcNAc(b1-3)Gal(b1-4)GlcNAc(b1-2)[Gal(b1-3)GlcNAc(b1-3)Gal(b1-4)GlcNAc(b1-3)Gal(b1-4)GlcNAc(b1-6)]Man(a1-6)[Gal(b1-3)GlcNAc(b1-3)Gal(b1-4)GlcNAc(b1-3)Gal(b1-4)GlcNAc(b1-2)Man(a1-3)]Man(b1-4)GlcNAc(b1-4)[Fuc(a1-6)]GlcNAc
# Procedure, shortened: as §1
# [22] = molecular target: Gal(b1-3)GlcNAc(b1-3)Gal(b1-4)GlcNAc(b1-6)[Gal(b1-3)GlcNAc(b1-3)]Gal(b1-4)Glc
# Procedure, shortened: as §1
# [23] = molecular target: Gal(b1-3)GlcNAc(b1-3)Gal(b1-4)[Fuc(a1-3)]GlcNAc
# Procedure, shortened: as §1
# [24] = molecular target: Gal(b1-3)GlcNAc(b1-3)Gal(b1-4)[Fuc(a1-3)]GlcNAc(b1-6)[Gal(b1-3)GlcNAc(b1-3)]Gal(b1-4)Glc
# Procedure, shortened: as §1
# [25] = molecular target: Gal(b1-3)GlcNAc(b1-3)GalNAc
# Procedure, shortened: as §1
# [26] = molecular target: Gal(b1-3)GlcNAc(b1-6)Gal(b1-4)GlcNAc
# Procedure, shortened: as §1
# [27] = molecular target: Gal(b1-3)GlcNAc(b1-6)GalNAc
# Procedure, shortened: as §1
binder,measurement,setting,value
PX14375D-bvu-513-34-513 (Bacteroides vulgatus) (protein) TEDTFWKDETDFNLALTSCYTPLKNALNGGYYGTRGVMLRIARADEVDFRNDISDVYTVNRFTNSNTNSLTQGMFYQFYNALYRTNSIMQKLEEKKEQFSTDFQNSVKGECLFIRGFYLFQLAKEFKDAPLRLTASQSPSTFPLAKSSQADIWAQAKEDLKTAASLLPITNKIGKPTQGAAYAALGKIYVYEENWQEAINVLEPLTQNPYTYKLVEDFNWNFDDTHENNAESIFELLIEDVGGTDLWGDGENINSTQSNTRPKEYAAAEVGGWYEANPTQQIMDIFWKEKDKDGNFDYRARCSVAWDYEGCTYYQRPFREVFAQDKWKTYWILKYQNWKTQKDEPAPPKSFINERAIRYADVLLMLAEAYMNKGALDTSIGYINQIRRRANLNDYSGPITKEGVFEDLVHQRAIEFFVEGERFYDLRRWGLLEQTLKTCDDTRYKNYQTGKSDNINKFNYFPIPAKELDTNPLCTPSEGW,glycan array binding signal (z-score),[1],2.92
same,glycan array binding signal (z-score),[2],0.997
same,glycan array binding signal (z-score),Gal(a1-4)Gal(b1-4)Glc,0.573
same,glycan array binding signal (z-score),Gal(a1-4)Gal(b1-4)GlcNAc,0.227
same,glycan array binding signal (z-score),[3],0.45
same,glycan array binding signal (z-score),[4],-1.03
same,glycan array binding signal (z-score),Gal(a1-4)GlcNAc,-0.604
same,glycan array binding signal (z-score),Gal(a1-6)Glc,0.518
same,glycan array binding signal (z-score),Gal(b1-2)Gal,-0.667
same,glycan array binding signal (z-score),Gal(b1-3)Gal,-0.37
same,glycan array binding signal (z-score),Gal(b1-3)Gal(b1-4)GlcNAc,0.587
same,glycan array binding signal (z-score),Gal(b1-3)GalNAc,0.147
same,glycan array binding signal (z-score),[5],-0.045
same,glycan array binding signal (z-score),[6],-0.122
same,glycan array binding signal (z-score),Gal(b1-3)GalNAc(b1-3)Gal,0.21
same,glycan array binding signal (z-score),[7],0.786
same,glycan array binding signal (z-score),[8],-0.034
same,glycan array binding signal (z-score),[9],-0.955
same,glycan array binding signal (z-score),Gal(b1-3)GlcNAc,0.32
same,glycan array binding signal (z-score),[10],0.548
same,glycan array binding signal (z-score),[11],-1.04
same,glycan array binding signal (z-score),Gal(b1-3)GlcNAc(b1-2)Man,-0.488
same,glycan array binding signal (z-score),[12],0.123
same,glycan array binding signal (z-score),[13],-0.21
same,glycan array binding signal (z-score),[14],-0.759
same,glycan array binding signal (z-score),[15],-0.104
same,glycan array binding signal (z-score),[16],-0.322
same,glycan array binding signal (z-score),[17],-0.666
same,glycan array binding signal (z-score),[18],-0.533
same,glycan array binding signal (z-score),[19],-0.121
same,glycan array binding signal (z-score),[20],0.395
same,glycan array binding signal (z-score),[21],1.07
same,glycan array binding signal (z-score),[22],0.438
same,glycan array binding signal (z-score),[23],-0.353
same,glycan array binding signal (z-score),[24],-0.162
same,glycan array binding signal (z-score),[25],-0.713
same,glycan array binding signal (z-score),[26],-0.337
same,glycan array binding signal (z-score),[27],0.412

# In another format: results already given
binder	measurement	setting	value
PX14375D-bvu-513-34-513 (Bacteroides vulgatus) (protein) TEDTFWKDETDFNLALTSCYTPLKNALNGGYYGTRGVMLRIARADEVDFRNDISDVYTVNRFTNSNTNSLTQGMFYQFYNALYRTNSIMQKLEEKKEQFSTDFQNSVKGECLFIRGFYLFQLAKEFKDAPLRLTASQSPSTFPLAKSSQADIWAQAKEDLKTAASLLPITNKIGKPTQGAAYAALGKIYVYEENWQEAINVLEPLTQNPYTYKLVEDFNWNFDDTHENNAESIFELLIEDVGGTDLWGDGENINSTQSNTRPKEYAAAEVGGWYEANPTQQIMDIFWKEKDKDGNFDYRARCSVAWDYEGCTYYQRPFREVFAQDKWKTYWILKYQNWKTQKDEPAPPKSFINERAIRYADVLLMLAEAYMNKGALDTSIGYINQIRRRANLNDYSGPITKEGVFEDLVHQRAIEFFVEGERFYDLRRWGLLEQTLKTCDDTRYKNYQTGKSDNINKFNYFPIPAKELDTNPLCTPSEGW	glycan array binding signal (z-score)	[11]	-1.04
same	glycan array binding signal (z-score)	Gal(b1-3)GlcNAc(b1-2)Man	-0.488
same	glycan array binding signal (z-score)	[12]	0.123
